## Results from one PubChem assay

Source: PubChem BioAssay AID1745848 (NCATS, 2022).

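HEK-293 cells carrying an ATXN2-luciferase reporter; luminescence signal loss after 24 h of compound exposure, with a parallel cell viability readout.
Compounds were tested as a dilution series from about 0.0037 to 57 µM.
The number is the fitted half-maximal inhibitory concentration (AC50); a lower value means a more potent inhibitor.
Calls come from curve class and activity score: actives score 40–100, while inconclusive compounds (weak, partial, poorly fitted or single-point curves) score 1–39.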

Values are in µM.
All entries here are filed as inconclusive.
Only part of the assay is shown, chiefly results filed as inconclusive.
A potency from a partial, single-point or poor curve is only a rough figure.
Some entries filed as inconclusive have a full curve.
Activity scores are not listed here.

* COc1ccc(Cl)cc1NC(=O)Nc1cccc([N+](=O)[O-])c1C | potency 3.162 µM (inhibitor, single point)
* COc1cc(CNCc2ccncc2)cc(Br)c1OCc1ccccc1F | potency 1.995 µM (inhibitor, partial curve, poor fit)
* Clc1ccc2nc(-c3ccccn3)c(Nc3ccc4c(c3)OCO4)n2c1 | potency 22.39 µM (inhibitor, partial curve, poor fit)
* O=C(/C=C/c1ccc(Cl)cc1)Nc1ccc(CN2CCOCC2)cc1 | potency 1.995 µM (inhibitor, partial curve)
* O=C(Nc1ccccc1N1CCN(C(=O)c2ccccc2)CC1)c1ccc(Br)o1 | potency 28.18 µM (inhibitor, partial curve, poor fit)
* CCn1ccnc1CN1CCCC(C(=O)c2ccc3cc(OC)ccc3c2)C1 (centres unmarked) | potency 1.995 µM (inhibitor, partial curve)
* COc1cccc(CNc2nc3cc(-c4ccccc4)sc3c(=O)n2C)c1OC | potency 17.78 µM (inhibitor, partial curve, poor fit)
* COc1cnc(-c2ccccn2)nc1NC(C)C | potency 3.981 µM (inhibitor, full curve, poor fit)
* Cc1ccc(C2CC(=O)Nc3c2ccc2ccccc32)cc1[N+](=O)[O-] (centres unmarked) | potency 35.48 µM (inhibitor, single point)
* NC(Cc1ccc(C(F)(F)F)cc1)c1csc(Nc2ccc(C(=O)NCc3ccco3)cn2)n1 (centres unmarked) | potency 3.162 µM (inhibitor, partial curve, poor fit)
* C=CCn1c(CNc2ccccc2)nnc1SCC(=O)N/N=C/c1ccccc1O | potency 3.162 µM (inhibitor, partial curve)
* COc1cccc(CN2CCC2(C)C(=O)Nc2cccc3cccnc23)c1OC (centres unmarked) | potency 1.995 µM (inhibitor, partial curve, poor fit)
* CC(/C=C/c1ccc2c(c1)OCO2)=N\NC(=O)c1cccc([N+](=O)[O-])c1 | potency 3.981 µM (inhibitor, partial curve, poor fit)
* COc1cc2c(C(=O)N3CCOCC3)c(CSc3ccccc3)n(C)c2cc1Br | potency 10 µM (inhibitor, single point)
* COc1ccc(C)cc1NC(=O)CSc1ccc(-c2ccccn2)nn1 | potency 15.85 µM (inhibitor, partial curve, poor fit)
* COc1ccc(CCNC(=O)c2cc(-c3cc(C)cc(C)c3O)n[nH]2)cc1OC | potency 25.12 µM (inhibitor, partial curve, poor fit)
* Cc1cc(C)c(C(=O)N2CCCC(N3CCN(c4cccc(C(F)(F)F)c4)CC3)C2)o1 (centres unmarked) | potency 1.585 µM (inhibitor, partial curve)
* CCCc1nc(C)cc(N2CCN(c3ccccc3)CC2)n1 | potency 22.39 µM (inhibitor, partial curve, poor fit)
* COc1cc(/C=C2\SC(=O)N(CC(=O)Nc3ccccc3F)C2=O)cc(Cl)c1O | potency 2.818 µM (inhibitor, partial curve)
* COc1cccc2nc3c(C(=O)NCCN(C)C)cccc3cc12 | potency 3.981 µM (inhibitor, partial curve, poor fit)
* COc1ccc2nc(NC(=O)C3CCN(S(=O)(=O)c4cccs4)CC3)sc2c1 | potency 1.585 µM (inhibitor, full curve)
* COc1ccc(CCCNC(=O)C2Cc3c(-c4cccc(NC(C)=O)c4)ccnc3O2)cc1 (centres unmarked) | potency 1.413 µM (inhibitor, full curve)
* O=C(Nc1nc(-c2ccc(S(=O)(=O)N3CCOCC3)cc2)cs1)c1ccccc1 | potency 6.31 µM (inhibitor, single point)
* O=C(CNC(=O)c1ccccc1O)N/N=C/c1cc(Br)ccc1OC(=O)/C=C/c1ccco1 | potency 1.413 µM (inhibitor, partial curve)
* COc1ccc(CNC(=O)CSc2nc(-c3ccccc3)cc(-c3cccs3)c2C#N)cc1 | potency 1.585 µM (inhibitor, full curve)

Some entries from above, unchanged:

| SMILES | potency (µM) | curve |
|---|---|---|
| `CC(/C=C/c1ccc2c(c1)OCO2)=N\NC(=O)c1cccc([N+](=O)[O-])c1` | 3.981 | inhibitor, partial curve, poor fit |
| `COc1ccc(CCCNC(=O)C2Cc3c(-c4cccc(NC(C)=O)c4)ccnc3O2)cc1` (centres unmarked) | 1.413 | inhibitor, full curve |
| `COc1cccc(CN2CCC2(C)C(=O)Nc2cccc3cccnc23)c1OC` (centres unmarked) | 1.995 | inhibitor, partial curve, poor fit |